In all, about 360,000 compounds went through this assay and about 7,500 (2.1%) were called active. This list was built around the results that the source calls inconclusive (neither active nor inactive); the mix of calls is not that of the screen. The call rests on the fitted dose curve; in most records, active means well fitted inhibition curve with a large enough effect; inconclusive means small, poorly fitted or top-dose-only effect, or effect the other way; inactive means flat fitted curve, though single readings scatter. Where the call is inconclusive, the potency comes from a doubtful curve fit.
experiment: Nrf2 qHTS screen for inhibitors; conditions: A549 ARE-Fluc reporter, luciferase luminescence, 18-24 h; series mostly up to 46 µM; further: nearly all actives have a fitted effect of over 60% in size
Summary of the method: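 Cells were seeded and rested 2 h, then exposed to compounds for 18-24 h. CellTiter-Fluor was read first as a viability measure. BugLite was added 15 min before the final luminescent read of ARE-luciferase activity in A549 cells.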
Potency means the concentration at half of the fitted maximal effect.

Row | SMILES | Potency
1 | CCN(CC)c1ccc2cc(C(N)=O)c(=N)oc2c1 | inconclusive: 7.31 µM [activator, partial curve, poor fit]
2 | O=C(C#Cc1ccccc1)c1ccco1 | active: 20.6 µM
3 | Cc1ccc(OCc2cc(C(=O)N3CCc4[nH]cnc4C3c3ccccn3)no2)cc1C (stereo not given) | inconclusive: 3.66 µM [falling, partial curve, poor fit]
4 | COc1ccc(NC(=O)c2csc(Cc3ccccc3)n2)cc1 | inconclusive: 2.31 µM [activator, partial curve, poor fit]
5 | CCN(CC)c1ncnc2scc(C3COc4ccccc4O3)c12 (stereo not given) | inconclusive: 18.4 µM [falling, partial curve, poor fit]
6 | COc1ccc(Oc2ncccc2[N+](=O)[O-])cc1 | inconclusive: 18.4 µM [activator, partial curve]
7 | COc1ccc(C(=O)Nc2ccc(S(=O)(=O)N3CCCCC3)cc2)cc1OC | inconclusive: 14.6 µM [falling, partial curve, poor fit]
8 | CCCCN(C)CCNC(=O)Cn1ncc2c([nH]c3ccccc32)c1=O | inconclusive: 16.4 µM [activator, partial curve]
9 | CCN1CCN(C(c2cccc(OC)c2OC)c2nnnn2Cc2ccco2)CC1 (stereo not given) | inactive
10 | COc1ccc(CNC(=O)Nc2cccc(C)c2)cc1 | inconclusive: 7.31 µM [activator, partial curve]
11 | C=C1CC2C(=O)N(Cc3cc(OC)ccc3OC)C(C(=O)OCC)C1N2C (stereo not given) | inactive
12 | CCN(c1ccccc1)S(=O)(=O)c1ccc(NCC2COc3ccccc3O2)nc1 (stereo not given) | inconclusive: 29.1 µM [falling, single point]
13 | CCOc1ccc(CSCCNC(=S)Nc2ccc(OC)cc2)cc1 | inconclusive: 32.6 µM [falling, single point]
14 | Cc1ccc(S(=O)(=O)N2CCC(=O)N(C(COCc3cccc(Cl)c3)C(C)C)CC2)cc1 (stereo not given) | inconclusive: 32.6 µM [falling, single point]
15 | COc1ccc(NC(=O)c2ccc3c(c2)NC(=O)CS3)cc1 | inactive
16 | CN(C)c1ccccc1C(=O)c1ccccc1N(C)C | inconclusive: 20.6 µM [activator, single point]
17 | O=C(CN(C(=O)CNS(=O)(=O)c1ccc(F)cc1)c1ccccc1F)NCc1ccco1 | inconclusive: 16.4 µM [falling, partial curve, poor fit]
18 | O=C(O)CCc1ccc(-c2ccccc2)n1-c1cccc(Br)c1 | inactive
19 | Cc1ccc(S(=O)(=O)N[C@@H](Cc2ccccc2)C(=O)CCl)cc1 | active: 18.4 µM
20 | COc1cc(/C=C/c2nc(C#N)c(NC(C)c3ccccc3)o2)cc(OC)c1OC (stereo not given) | inconclusive: 16.4 µM [falling, single point]
21 | O=C1c2ccccc2NC(c2ccc(-c3cccc(Cl)c3)o2)N1O (stereo not given) | inconclusive: 6.51 µM [activator, single point]
22 | CC(Nc1ncnc2sccc12)c1ccccc1 (stereo not given) | active: 1.64 µM
23 | CCN1CCN(C(=O)c2cc(COc3ccc(F)cc3F)on2)[C@@H](C)C1=O | inconclusive: 20.6 µM [falling, partial curve, poor fit]

3 records drawn at random from the list so far, as already listed:
Row | SMILES | Potency
23 | CCN1CCN(C(=O)c2cc(COc3ccc(F)cc3F)on2)[C@@H](C)C1=O | inconclusive: 20.6 µM [falling, partial curve, poor fit]
4 | COc1ccc(NC(=O)c2csc(Cc3ccccc3)n2)cc1 | inconclusive: 2.31 µM [activator, partial curve, poor fit]
13 | CCOc1ccc(CSCCNC(=S)Nc2ccc(OC)cc2)cc1 | inconclusive: 32.6 µM [falling, single point]

More entries

Row | SMILES | Potency
24 | Cc1cccc([S+](=O)([O-])NC2CCN(C#N)CC2)c1 | inactive
25 | Cc1cccc(NC(=S)NCCc2c[nH]c3ccccc23)c1 | inactive
26 | O=C(Nc1ccccc1N1CCOCC1)c1ccccc1NS(=O)(=O)c1ccc(F)cc1 | inactive
27 | CN(Cc1ccccc1)C(=O)c1cc2c(s1)-c1ccc(Cl)cc1SC2 | inconclusive: 29.1 µM [falling, single point]
28 | COc1ccc(CCNC(=O)c2cccc(S(=O)(=O)N3CCc4ccccc4C3)c2)cc1 | inconclusive: 29.1 µM [falling, single point]
29 | O=C(COC(=O)c1ccccc1Br)NC1CCCCCCC1 | inconclusive: 14.6 µM [activator, partial curve]
30 | CCC(=O)Nc1ccc(C(=O)Nc2cccc(C)n2)cc1 | inconclusive: 2.91 µM [activator, full curve, poor fit]
31 | Cc1ccc(N2CN=c3s/c(=C\c4cccnc4)c(=O)n3C2)cc1 | inconclusive: 2.31 µM [falling, partial curve, poor fit]
32 | Cc1ncc([N+](=O)[O-])n1CCOC(=O)c1ccc(Cl)cc1Cl | inconclusive: 0.411 µM [activator, full curve, poor fit]
33 | Cc1ccc(NC(=O)CCc2c(C)nn(-c3ccc(N4CCOCC4)nn3)c2C)cc1F | inconclusive: 25.9 µM [activator, partial curve, poor fit]
34 | CS(=O)(=O)N(CC(=O)N1CCN(Cc2ccccc2)CC1)c1cccc([N+](=O)[O-])c1 | inconclusive: 5.8 µM [falling, partial curve, poor fit]
35 | COc1ccc(N(C(=O)COc2ccc(Br)cc2)S(=O)(=O)c2ccc(C)cc2)cc1 | inactive
36 | Cc1ccc(C)c(C(=O)CCC(=O)NNC(=O)c2cccs2)c1 | inactive
37 | COc1ccc(N(C(=O)c2snc(C(N)=O)c2N)C(C(=O)NC2CCCC2)c2ccco2)cc1 (stereo not given) | inactive
38 | Cc1ccc2cc3cc(C(=O)NC4CCCCC4)oc3nc2c1 | inconclusive: 13 µM [activator, partial curve]
39 | Cc1cccc2cc(C#N)c(SCC(=O)NNC(=O)Cc3ccccc3)nc12 | inconclusive: 6.51 µM [falling, single point]
40 | O=C(Nc1ccc(Cl)c(Cl)c1)OCc1cncs1 | inconclusive: 29.1 µM [falling, single point]
41 | CCn1c(-c2cc(-c3ccc(C)cc3)nc3ccccc23)n[nH]c1=S | inactive
42 | CC(=O)N/N=C/c1ccc(OCCOc2ccc(Br)cc2)cc1 | inactive
43 | CC(NC(=O)c1ccco1)C(=O)N(C)Cc1ccc(C(F)(F)F)cc1 (stereo not given) | inconclusive: 0.184 µM [falling, full curve, poor fit]
44 | COc1cccc(C(=O)N2CCCC(Nc3ccc(C)c(C)c3)C2)c1 (stereo not given) | inactive
45 | COc1ccccc1N1CCN(C(=O)c2ccc(N3CCCCS3(=O)=O)cc2)CC1 | inconclusive: 29.1 µM [falling, single point]

Reference: PubChem BioAssay AID504444 (National Center for Advancing Translational Sciences (NCATS), 2011)
